PubChem BioAssay AID504648 (National Center for Advancing Translational Sciences (NCATS), 2011)
Screen size: about 390,000 compounds; about 610 (0.16%) were called active. This list was built around the results that the source calls inconclusive (neither active nor inactive); the mix of calls is not that of the screen. The call rests on the fitted dose curve; in most records, active means well fitted inhibition curve with a large enough effect; inconclusive means small, poorly fitted or top-dose-only effect, or effect the other way, or another doubt; inactive means no such curve, though single readings can be large or run the other way. Where the call is inconclusive, the potency comes from a doubtful curve fit.

assay: Nrf2 qHTS screen for inhibitors: counterscreen for cytotoxicity; settings: A549 ARE-Fluc cells, CellTiter-Fluor viability, 18-24 h; activity change, negative = cytotoxicity: at 46 µM (top of the series)
Procedure, shortened: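 A549 ARE_Fluc cells in 5% FBS OPTI-MEM were exposed to compounds in concentration-response for 18-24 h at 37 deg C. Viability was read by CellTiter-Fluor fluorescence (Ex 405/Em 525) after 30 min, before the luciferase read.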
On the % scale 0 is the no-effect control and ±100 the full control effect; potency means the concentration at half of the fitted maximal effect.

| SMILES | activity change, negative = cytotoxicity | Potency |
| --- | --- | --- |
| Cc1ccc(-c2nc(CS(=O)(=O)CC(=O)N3CCN(c4cccc(C)c4C)CC3)c(C)o2)cc1 | inactive: 3.5% | – |
| CCOC(=O)c1cnc2ccc(OC)cc2c1NCCc1ccc(OC)c(OC)c1 | – | inconclusive: 13 µM [falling, partial curve, poor fit] |
| COc1ccc2c(c1OC)C(=O)OC2CC(=O)c1ccc(N(C)C)cc1 (configuration not stated) | – | inconclusive: 25.9 µM [falling, partial curve, poor fit] |
| Cc1noc(C)c1S(=O)(=O)NCCc1ccc(S(N)(=O)=O)cc1 | – | inconclusive: 11.6 µM [falling, partial curve, poor fit] |
| COc1cccc(C2CC(c3cccc(NS(C)(=O)=O)c3)=NN2C(=O)c2ccccc2)c1OC (configuration not stated) | – | inconclusive: 25.9 µM [falling, partial curve, poor fit] |
| O=S(=O)(NCc1ccccc1)c1ccc(S(=O)(=O)N(Cc2ccccn2)Cc2ccco2)cc1 | – | inconclusive: 16.4 µM [falling, partial curve, poor fit] |
| CCc1cc(=O)oc2c(CN3CCCC3)c(O)c(Cl)cc12 | – | inconclusive: 29.1 µM [activator, single point] |
| CCc1ccc(CN(Cc2ccco2)C(=O)c2ccc(OC)cc2)cc1 | inactive: -1.09% | – |
| O=S(=O)(Nc1cccc(-c2ccc(N3CCCC3)nn2)c1)c1ccccc1C(F)(F)F | inactive: -0.44% | – |
| Fc1cccc(NC(=S)NNc2c3ccccc3nc3ccccc23)c1 | – | inconclusive: 18.4 µM [falling, single point] |
| Clc1ccccc1CONc1ncnc2nonc12 | inactive: 26.6% | – |
| CCOc1ccc(C2/C(=C(\O)c3ccc4c(c3)OCCO4)C(=O)C(=O)N2CCCN2CCOCC2)cc1OC (configuration not stated) | inactive: -5.01% | – |
| CCN(CC)c1nc(SCCOC(=O)Nc2ccccc2)nc(N(CC)CC)n1 | – | inconclusive: 29.1 µM [falling, single point] |
| COc1ccc(/C=C2\SC(=S)N(CC(=O)N(C)C3CCS(=O)(=O)C3)C2=O)cc1 (configuration not stated) | – | inconclusive: 25.9 µM [falling, single point] |
| CCN(CC)c1ccc2oc(=O)c(C)nc2c1 | – | inconclusive: 5.8 µM [activator, single point] |
| COC(=O)c1ccc(OCC(O)CN2CCN(C(=O)c3ccco3)CC2)c(OC)c1 (configuration not stated) | inactive: -10.7% | – |
| COc1c(-c2ccc([N+](=O)[O-])cc2[N+](=O)[O-])c(=O)n(C)c(=O)n1C | – | inconclusive: 23.1 µM [falling, partial curve, poor fit] |
| COCCn1c(CNC(=O)c2ccc(C)cc2)nc2cccnc21 | inactive: -3.44% | – |
| CC1CCN(CCc2nc3cc(NC(=O)COc4ccc([N+](=O)[O-])cc4)ccc3n2C)CC1 | – | inconclusive: 18.4 µM [falling, partial curve, poor fit] |
| Cc1occc1C(=O)NCc1ccc(C(=O)O)o1 | inactive: 3.9% | – |
| OC(CNCCCN1CCCCC1)COc1ccccc1 (configuration not stated) | – | inconclusive: 29.1 µM [falling, single point] |
| O=C(CNC(=O)c1ccccc1)N/N=C/c1cccs1 | inactive: -0.816% | – |
| COc1ccc(CC(=O)NCc2nnc(SCCOc3ccccc3)n2C)cc1 | – | inconclusive: 7.31 µM [activator, partial curve, poor fit] |

Gathered by group, the compounds so far containing sulfur

| SMILES | activity change, negative = cytotoxicity | Potency |
| --- | --- | --- |
| Cc1ccc(-c2nc(CS(=O)(=O)CC(=O)N3CCN(c4cccc(C)c4C)CC3)c(C)o2)cc1 | inactive: 3.5% | – |
| Cc1noc(C)c1S(=O)(=O)NCCc1ccc(S(N)(=O)=O)cc1 | – | inconclusive: 11.6 µM [falling, partial curve, poor fit] |
| COc1cccc(C2CC(c3cccc(NS(C)(=O)=O)c3)=NN2C(=O)c2ccccc2)c1OC (configuration not stated) | – | inconclusive: 25.9 µM [falling, partial curve, poor fit] |
| O=S(=O)(NCc1ccccc1)c1ccc(S(=O)(=O)N(Cc2ccccn2)Cc2ccco2)cc1 | – | inconclusive: 16.4 µM [falling, partial curve, poor fit] |
| O=S(=O)(Nc1cccc(-c2ccc(N3CCCC3)nn2)c1)c1ccccc1C(F)(F)F | inactive: -0.44% | – |
| Fc1cccc(NC(=S)NNc2c3ccccc3nc3ccccc23)c1 | – | inconclusive: 18.4 µM [falling, single point] |
| CCN(CC)c1nc(SCCOC(=O)Nc2ccccc2)nc(N(CC)CC)n1 | – | inconclusive: 29.1 µM [falling, single point] |
| COc1ccc(/C=C2\SC(=S)N(CC(=O)N(C)C3CCS(=O)(=O)C3)C2=O)cc1 (configuration not stated) | – | inconclusive: 25.9 µM [falling, single point] |
| O=C(CNC(=O)c1ccccc1)N/N=C/c1cccs1 | inactive: -0.816% | – |
| COc1ccc(CC(=O)NCc2nnc(SCCOc3ccccc3)n2C)cc1 | – | inconclusive: 7.31 µM [activator, partial curve, poor fit] |

Further compounds

| SMILES | activity change, negative = cytotoxicity | Potency |
| --- | --- | --- |
| C/C(=N\NC(=O)CC#N)c1cc2ccc(O)cc2oc1=O | – | inconclusive: 18.4 µM [activator, single point] |
| Cn1cccc1/C=N/N1CCN(Cc2cccc3ccccc23)CC1 | inactive: 1.2% | – |
| CC[C@]12c3[nH]c4ccc(Cl)cc4c3CCN1C(=O)[C@@H](CC(=O)NCC13CC4CC(CC(C4)C1)C3)C[C@@H]2C(=O)N1CCN(C(=O)c2ccco2)CC1 | – | inconclusive: 29.1 µM [falling, single point] |
| OC(CNCc1ccco1)Cn1c2ccc(Br)cc2c2cc(Br)ccc21 (configuration not stated) | – | inconclusive: 18.4 µM [falling, single point] |
| NC(=O)C1CCN(C(=S)c2ccc(-c3ccc(Br)cc3)o2)CC1 | inactive: 1.76% | – |
| C[C@@H]1CN([C@H](C)CO)C(=O)c2cccc(NC(=O)NC3CCCCC3)c2O[C@@H]1CN(C)C(=O)Nc1ccc(C(F)(F)F)cc1 | – | inconclusive: 29.1 µM [falling, partial curve, poor fit] |
| CCN(CC)c1ccc(NS(=O)(=O)c2ccc(-c3cnc(C4CC4)o3)cc2)c(C)c1 | inactive: -14.8% | – |
| O=C(c1cc(-c2cccc3ccccc23)nc2ccccc12)N1CCN(CCO)CC1 | inactive: 0.831% | – |
| N#CC1=C(SCC(=O)c2ccc(Cl)cc2)NC2=C(C(=O)CCC2)C1c1ccco1 (configuration not stated) | – | inconclusive: 29.1 µM [falling, single point] |
| O=[N+]([O-])c1ccc(Cl)c(S(=O)(=O)/N=C(/Sc2ccc(Br)cc2)c2ccccc2)c1 | inactive: -10.1% | – |
| CCOC(=O)c1cc2c(=O)n3ccccc3nc2n(Cc2ccco2)c1=NC(=O)c1cccnc1 | – | inconclusive: 20.6 µM [activator, single point] |
| O=C(CSc1nnc(COc2ccc(Cl)cc2)n1Cc1ccco1)c1ccccc1F | – | inconclusive: 25.9 µM [falling, single point] |
| COc1ncccc1C(=O)N1CCCC(N2CCN(c3cccc(Cl)c3)CC2)C1 (configuration not stated) | inactive: 3.82% | – |
| Cc1c(C(=O)c2ccc(Cl)c([N+](=O)[O-])c2)c2ccccn2c1CCC#N | – | inconclusive: 16.4 µM [falling, single point] |
| O=C(NCCc1c[nH]c2ccccc12)c1cc2sccc2n1Cc1ccccc1 | – | inconclusive: 4.61 µM [falling, single point] |
| O=C(Nc1cccc(-c2cnc3ccccc3n2)c1)c1cccc(NC(=O)c2ccco2)c1 | – | inconclusive: 18.4 µM [falling, single point] |
| NC(=O)c1c(NC(=O)c2nc(SCc3ccccc3F)ncc2Cl)sc2c1CCCC2 | inactive: -9.8% | – |
| C=CCc1cccc(/C=N/NC(=O)CCC(=O)Nc2ccc(C)cc2)c1O | inactive: -4.73% | – |
| COc1ccc(OC)c(CNC(=O)c2nn(-c3ccc(OC)c(Cl)c3)c(=O)c3c2c2ccccc2n3C)c1 | – | inconclusive: 29.1 µM [activator, partial curve, poor fit] |
| CCCCN(CCCC)S(=O)(=O)c1ccc(NC(=O)c2cccs2)cc1 | – | inconclusive: 23.1 µM [falling, single point] |
| COc1ccc(N2CC(C)Cn3c2nc2c3c(=O)n(Cc3ccccc3)c(=O)n2C)c(OC)c1 (configuration not stated) | – | inconclusive: 23.1 µM [falling, partial curve, poor fit] |
| CCc1ccc(Nc2nc(N)nc(CSc3nc4ccccc4s3)n2)cc1 | – | inactive |
| O=C1OCC2=C1C(c1ccc(F)cc1)c1cc3c(cc1N2)OCCO3 (configuration not stated) | – | inconclusive: 0.092 µM [falling, full curve] |

Taken from above.
O=C1OCC2=C1C(c1ccc(F)cc1)c1cc3c(cc1N2)OCCO3 (configuration not stated) – Potency: inconclusive: 0.092 µM [falling, full curve]
NC(=O)c1c(NC(=O)c2nc(SCc3ccccc3F)ncc2Cl)sc2c1CCCC2 – activity change, negative = cytotoxicity: inactive: -9.8%

The results go on:

| SMILES | activity change, negative = cytotoxicity | Potency |
| --- | --- | --- |
| CCc1ccc(-n2nc3ccc(NC(=O)c4ccc(C#N)cc4F)cc3n2)cc1 | inactive: -0.401% | – |
| CC(C)N(C(=O)Nc1ccc2nsnc2c1)C(C)C | – | inconclusive: 29.1 µM [falling, single point] |
| COc1cccc(N=c2oc3c(C)ncc(CO)c3cc2C(N)=O)c1 | – | inconclusive: 1.03 µM [falling, partial curve, poor fit] |
| COc1ccc(NC(=O)CN2CCCN(S(=O)(=O)c3ccc(F)cc3)CC2)cc1 | – | inconclusive: 13 µM [activator, partial curve] |
| Nc1c(Cl)ncnc1N/N=C/c1ccc2ccccc2n1 | – | inconclusive: 20.6 µM [falling, single point] |
| O=C(COc1ccc(Cl)cc1)OCc1ccc(Cl)cc1 | inactive: -4.2% | – |
| CCOC(=O)N1CCN(Cc2cc(=O)oc3ccc(Cl)cc23)CC1 | – | inconclusive: 1.84 µM [activator, partial curve, poor fit] |
| Cc1ccc(S(=O)(=O)N2CCOCC2)cc1C(=O)NCc1ccco1 | – | inconclusive: 20.6 µM [activator, partial curve, poor fit] |
| CCOc1c(Cl)cc(CNC(C)(C)CC(C)(C)C)cc1OC | inactive: 3.38% | – |
| COc1ccc(-c2cn3nc(N4CCCC(C(=O)NCc5ccccc5Cl)C4)sc3n2)cc1 (configuration not stated) | inactive: 0.399% | – |
| Cc1cc2ccccn2c1C(=O)c1cc([N+](=O)[O-])cc([N+](=O)[O-])c1 | – | inconclusive: 18.4 µM [falling, partial curve, poor fit] |
| CCOc1cc(/C=C2/C(=O)N(c3ccccc3)N=C2C)ccc1OC(=O)c1cccs1 | inactive: 14.8% | – |
| O=[N+]([O-])c1cc(C(F)(F)F)cc([N+](=O)[O-])c1NCCNC(=S)Nc1ccc(Cl)c(Cl)c1 | – | inconclusive: 29.1 µM [falling, single point] |
| c1ccc(-c2nnc(N3CCN(c4ccccn4)CC3)c3ccccc23)cc1 | – | inconclusive: 25.9 µM [falling, single point] |
| COc1ccc(S(=O)(=O)Nc2cccc3c2O[C@H](CN(C)Cc2ccc(-c4ccccc4)cc2)[C@@H](C)CN([C@H](C)CO)C3=O)cc1 | inactive: -4.03% | – |
| CCOC(=O)C1=C(Cc2ccc(OC)cc2)C(=O)c2ccccc2C1=O | – | inconclusive: 23.1 µM [falling, single point] |
| Cc1cc(N2CCCCC2)nc2ccc(NC(=O)/C=C/c3ccccc3Cl)cc12 | – | inconclusive: 25.9 µM [falling, partial curve, poor fit] |
| CCSc1ncc(Cl)c(C(=O)Nc2nc3ccc(OC)cc3s2)n1 | – | inconclusive: 29.1 µM [falling, partial curve, poor fit] |
| O=C(Nc1nccs1)c1ccc(-c2cccc([N+](=O)[O-])c2)o1 | inactive: -10.4% | – |
| Cc1cc(=O)[nH]c(N/N=C2/CCCC/C2=C\c2ccccc2)n1 | inactive: 0.949% | – |
| COc1ccc(C2/C=C\CN(C(=O)c3ccc(C)cc3)C(C)C(=O)N2Cc2ccc(F)cc2)cc1 (configuration not stated) | – | inconclusive: 25.9 µM [falling, partial curve, poor fit] |
